Some of the results follow.
Columns and labels:
Assay in all cases: log2 fold change, soluble protein after heating vs DMSO (PISA); higher = thermal stabilisation; K562 cells, 10 uM, 30 min; active = over 0.2 and 3.5 SD of the protein, either way, in both replicates (recomputed)
saracatinib = compound: CN1CCN(CCOc2cc(OC3CCOCC3)c3c(Nc4c(Cl)ccc5c4OCO5)ncnc3c2)CC1 [saracatinib]
In short: (§1)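 K562 cells at 2×10^6 cells/mL were treated for 30 min with 10 μM compound, and aliquots were heated for 3 min over 48°C-58°C before pooling. Extraction used PBS with 0.5% NP-40 at 4°C, and soluble protein was the supernatant after 21,000xg for 90 min, measured by TMTpro 16plex LC-MS/MS with channel sums equalised. Thermal stability values, relative to control samples and from duplicates, are log2 fold changes.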

Protein sequences, listed by entry. Tags and fused reporters are not part of them. Lines headed by an entry give the natural chain unless they say otherwise; changes in a name come on top.
UniProt Q9UL26: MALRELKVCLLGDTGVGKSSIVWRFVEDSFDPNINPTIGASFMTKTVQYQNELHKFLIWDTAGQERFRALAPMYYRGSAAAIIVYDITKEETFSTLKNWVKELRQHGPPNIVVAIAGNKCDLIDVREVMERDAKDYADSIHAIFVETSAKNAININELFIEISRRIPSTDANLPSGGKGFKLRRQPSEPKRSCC
UniProt Q8WUD1: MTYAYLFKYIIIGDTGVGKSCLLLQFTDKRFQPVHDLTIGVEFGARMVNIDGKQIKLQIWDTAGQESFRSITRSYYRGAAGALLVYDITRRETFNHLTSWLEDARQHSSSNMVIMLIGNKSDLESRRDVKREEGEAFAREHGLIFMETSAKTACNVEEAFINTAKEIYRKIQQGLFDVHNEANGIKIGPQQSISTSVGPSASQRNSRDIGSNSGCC
UniProt Q9NRW1: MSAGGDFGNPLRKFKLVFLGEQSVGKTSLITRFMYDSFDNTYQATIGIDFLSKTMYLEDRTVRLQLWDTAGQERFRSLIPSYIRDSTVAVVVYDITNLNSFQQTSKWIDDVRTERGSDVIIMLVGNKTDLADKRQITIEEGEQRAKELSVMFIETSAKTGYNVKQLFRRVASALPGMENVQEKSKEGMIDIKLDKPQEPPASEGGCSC
UniProt Q9UL25: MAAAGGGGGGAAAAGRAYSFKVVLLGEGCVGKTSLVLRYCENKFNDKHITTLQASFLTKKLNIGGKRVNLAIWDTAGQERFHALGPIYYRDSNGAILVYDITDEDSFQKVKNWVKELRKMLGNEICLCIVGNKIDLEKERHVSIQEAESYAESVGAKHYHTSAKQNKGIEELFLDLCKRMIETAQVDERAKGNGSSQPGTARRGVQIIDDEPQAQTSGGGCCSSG
UniProt Q9H2T7: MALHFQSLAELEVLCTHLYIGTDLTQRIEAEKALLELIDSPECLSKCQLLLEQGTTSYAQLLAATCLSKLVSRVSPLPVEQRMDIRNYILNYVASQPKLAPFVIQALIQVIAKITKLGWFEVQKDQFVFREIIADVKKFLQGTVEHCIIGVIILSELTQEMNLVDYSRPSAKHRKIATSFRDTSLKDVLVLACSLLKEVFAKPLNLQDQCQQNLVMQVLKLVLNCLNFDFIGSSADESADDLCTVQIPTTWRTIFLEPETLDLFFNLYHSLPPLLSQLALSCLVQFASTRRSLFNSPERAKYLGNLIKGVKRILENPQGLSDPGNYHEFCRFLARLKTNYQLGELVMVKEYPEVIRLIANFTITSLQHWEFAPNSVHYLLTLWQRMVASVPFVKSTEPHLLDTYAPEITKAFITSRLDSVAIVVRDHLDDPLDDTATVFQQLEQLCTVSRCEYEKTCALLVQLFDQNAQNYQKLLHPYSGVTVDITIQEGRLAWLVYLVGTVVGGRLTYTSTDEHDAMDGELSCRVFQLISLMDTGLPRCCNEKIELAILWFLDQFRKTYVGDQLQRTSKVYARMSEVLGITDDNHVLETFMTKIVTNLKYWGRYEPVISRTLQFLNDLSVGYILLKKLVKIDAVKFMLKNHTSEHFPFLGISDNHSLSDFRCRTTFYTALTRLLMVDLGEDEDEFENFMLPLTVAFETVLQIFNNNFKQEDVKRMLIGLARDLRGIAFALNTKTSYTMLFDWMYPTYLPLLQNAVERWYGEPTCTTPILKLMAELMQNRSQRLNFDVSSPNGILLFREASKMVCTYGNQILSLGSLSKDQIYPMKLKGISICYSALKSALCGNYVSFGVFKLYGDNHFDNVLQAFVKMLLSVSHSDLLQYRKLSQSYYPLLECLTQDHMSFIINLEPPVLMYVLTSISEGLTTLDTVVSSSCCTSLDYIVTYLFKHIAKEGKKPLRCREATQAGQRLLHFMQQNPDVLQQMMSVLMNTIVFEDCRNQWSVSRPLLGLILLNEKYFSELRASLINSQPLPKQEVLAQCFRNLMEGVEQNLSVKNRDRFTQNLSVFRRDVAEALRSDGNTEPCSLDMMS
UniProt P51153: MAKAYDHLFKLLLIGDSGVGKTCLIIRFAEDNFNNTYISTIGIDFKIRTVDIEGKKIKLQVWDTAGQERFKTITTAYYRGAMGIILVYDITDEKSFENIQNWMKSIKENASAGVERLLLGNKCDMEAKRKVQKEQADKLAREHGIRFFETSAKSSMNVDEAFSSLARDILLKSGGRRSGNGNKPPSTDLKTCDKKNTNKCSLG
UniProt O00194: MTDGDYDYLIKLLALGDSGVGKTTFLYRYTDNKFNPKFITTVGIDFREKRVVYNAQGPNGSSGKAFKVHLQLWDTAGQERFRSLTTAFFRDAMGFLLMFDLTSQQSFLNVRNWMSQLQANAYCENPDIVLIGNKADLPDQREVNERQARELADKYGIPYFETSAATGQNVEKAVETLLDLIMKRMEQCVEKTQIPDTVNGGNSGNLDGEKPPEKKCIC
UniProt P11234: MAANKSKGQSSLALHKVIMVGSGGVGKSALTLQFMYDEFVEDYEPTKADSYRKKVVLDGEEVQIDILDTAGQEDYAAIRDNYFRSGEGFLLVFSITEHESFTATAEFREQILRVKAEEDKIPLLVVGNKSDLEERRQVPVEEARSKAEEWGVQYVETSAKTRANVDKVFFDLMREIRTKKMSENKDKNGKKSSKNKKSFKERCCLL
UniProt Q96E17: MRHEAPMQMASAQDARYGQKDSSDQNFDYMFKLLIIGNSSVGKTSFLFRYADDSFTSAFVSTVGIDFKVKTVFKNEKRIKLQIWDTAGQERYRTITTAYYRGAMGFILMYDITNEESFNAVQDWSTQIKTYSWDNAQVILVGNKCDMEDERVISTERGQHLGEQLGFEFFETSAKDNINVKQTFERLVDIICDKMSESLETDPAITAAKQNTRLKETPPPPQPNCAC
UniProt Q969Q5: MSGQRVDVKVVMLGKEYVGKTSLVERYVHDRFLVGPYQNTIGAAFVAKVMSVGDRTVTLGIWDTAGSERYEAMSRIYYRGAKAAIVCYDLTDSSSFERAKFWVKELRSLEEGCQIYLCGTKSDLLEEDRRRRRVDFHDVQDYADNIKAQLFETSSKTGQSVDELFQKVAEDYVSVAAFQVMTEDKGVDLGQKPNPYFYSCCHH
UniProt Q15907: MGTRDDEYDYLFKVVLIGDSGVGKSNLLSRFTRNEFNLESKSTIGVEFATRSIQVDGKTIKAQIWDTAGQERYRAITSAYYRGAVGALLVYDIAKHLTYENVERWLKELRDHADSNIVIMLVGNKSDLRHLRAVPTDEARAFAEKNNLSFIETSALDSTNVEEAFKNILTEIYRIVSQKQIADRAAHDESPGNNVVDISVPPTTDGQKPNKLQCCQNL
UniProt P51159: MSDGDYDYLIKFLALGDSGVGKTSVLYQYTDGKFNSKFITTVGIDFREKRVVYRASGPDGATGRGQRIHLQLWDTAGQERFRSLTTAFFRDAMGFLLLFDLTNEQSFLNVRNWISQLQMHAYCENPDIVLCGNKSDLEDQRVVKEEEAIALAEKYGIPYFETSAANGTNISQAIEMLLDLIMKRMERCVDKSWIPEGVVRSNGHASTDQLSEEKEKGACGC
UniProt Q16576, whole entry, looked up: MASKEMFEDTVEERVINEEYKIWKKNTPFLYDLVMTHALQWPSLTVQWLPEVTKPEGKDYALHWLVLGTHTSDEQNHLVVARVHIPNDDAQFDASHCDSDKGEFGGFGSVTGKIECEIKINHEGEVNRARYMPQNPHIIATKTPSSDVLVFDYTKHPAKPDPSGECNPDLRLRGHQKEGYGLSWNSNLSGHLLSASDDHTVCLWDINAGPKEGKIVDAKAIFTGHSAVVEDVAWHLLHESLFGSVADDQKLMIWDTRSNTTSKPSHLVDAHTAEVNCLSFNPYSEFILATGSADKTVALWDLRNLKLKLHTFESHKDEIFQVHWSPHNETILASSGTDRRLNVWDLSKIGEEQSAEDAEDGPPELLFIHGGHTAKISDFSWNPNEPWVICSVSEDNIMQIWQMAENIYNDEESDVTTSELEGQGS
UniProt O60671: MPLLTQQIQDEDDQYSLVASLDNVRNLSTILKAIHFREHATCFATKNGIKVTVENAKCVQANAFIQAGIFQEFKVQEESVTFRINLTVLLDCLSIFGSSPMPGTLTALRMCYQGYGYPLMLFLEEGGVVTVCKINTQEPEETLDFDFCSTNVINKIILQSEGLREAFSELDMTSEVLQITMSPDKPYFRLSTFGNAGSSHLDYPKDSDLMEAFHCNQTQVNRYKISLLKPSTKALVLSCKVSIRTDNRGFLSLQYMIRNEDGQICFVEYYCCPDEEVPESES
UniProt Q8WWW0: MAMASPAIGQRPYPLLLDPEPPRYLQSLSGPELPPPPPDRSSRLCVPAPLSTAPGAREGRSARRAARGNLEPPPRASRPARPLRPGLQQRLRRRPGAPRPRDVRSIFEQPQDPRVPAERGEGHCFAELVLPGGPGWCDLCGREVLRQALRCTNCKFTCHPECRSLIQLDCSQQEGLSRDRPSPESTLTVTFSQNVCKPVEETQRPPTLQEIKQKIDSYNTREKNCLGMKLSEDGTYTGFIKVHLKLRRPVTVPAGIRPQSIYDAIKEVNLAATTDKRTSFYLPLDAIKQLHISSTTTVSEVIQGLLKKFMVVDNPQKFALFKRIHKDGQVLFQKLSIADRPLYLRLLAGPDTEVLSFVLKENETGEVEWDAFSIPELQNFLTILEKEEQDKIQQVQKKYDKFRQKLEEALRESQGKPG
UniProt P20336: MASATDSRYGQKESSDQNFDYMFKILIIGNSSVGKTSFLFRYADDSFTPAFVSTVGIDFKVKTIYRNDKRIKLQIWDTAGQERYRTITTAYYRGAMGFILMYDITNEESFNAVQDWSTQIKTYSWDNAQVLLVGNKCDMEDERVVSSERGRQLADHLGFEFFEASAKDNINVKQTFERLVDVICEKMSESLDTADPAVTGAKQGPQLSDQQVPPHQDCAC
UniProt P20338: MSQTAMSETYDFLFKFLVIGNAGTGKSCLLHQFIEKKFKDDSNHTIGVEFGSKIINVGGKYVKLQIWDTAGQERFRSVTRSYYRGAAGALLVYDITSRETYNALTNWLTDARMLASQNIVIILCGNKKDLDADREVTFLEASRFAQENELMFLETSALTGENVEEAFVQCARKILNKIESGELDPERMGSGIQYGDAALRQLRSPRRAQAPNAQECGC
UniProt Q9H0H5: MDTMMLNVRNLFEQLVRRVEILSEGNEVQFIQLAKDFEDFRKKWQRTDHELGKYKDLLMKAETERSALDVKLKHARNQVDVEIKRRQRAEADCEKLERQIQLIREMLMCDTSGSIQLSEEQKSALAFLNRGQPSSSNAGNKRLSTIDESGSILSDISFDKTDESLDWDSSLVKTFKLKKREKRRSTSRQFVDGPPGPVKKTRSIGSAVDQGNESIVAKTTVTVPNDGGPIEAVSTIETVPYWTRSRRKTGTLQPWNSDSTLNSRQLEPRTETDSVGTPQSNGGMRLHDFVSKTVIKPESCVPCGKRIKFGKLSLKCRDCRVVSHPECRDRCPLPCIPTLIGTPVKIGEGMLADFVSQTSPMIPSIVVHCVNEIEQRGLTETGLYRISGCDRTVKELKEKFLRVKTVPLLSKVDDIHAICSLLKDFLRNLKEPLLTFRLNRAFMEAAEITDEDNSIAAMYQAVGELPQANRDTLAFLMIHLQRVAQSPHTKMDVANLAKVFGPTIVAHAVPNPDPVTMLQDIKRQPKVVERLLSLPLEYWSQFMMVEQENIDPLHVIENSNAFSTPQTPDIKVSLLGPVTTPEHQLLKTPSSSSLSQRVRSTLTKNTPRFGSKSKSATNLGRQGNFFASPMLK
UniProt O43502: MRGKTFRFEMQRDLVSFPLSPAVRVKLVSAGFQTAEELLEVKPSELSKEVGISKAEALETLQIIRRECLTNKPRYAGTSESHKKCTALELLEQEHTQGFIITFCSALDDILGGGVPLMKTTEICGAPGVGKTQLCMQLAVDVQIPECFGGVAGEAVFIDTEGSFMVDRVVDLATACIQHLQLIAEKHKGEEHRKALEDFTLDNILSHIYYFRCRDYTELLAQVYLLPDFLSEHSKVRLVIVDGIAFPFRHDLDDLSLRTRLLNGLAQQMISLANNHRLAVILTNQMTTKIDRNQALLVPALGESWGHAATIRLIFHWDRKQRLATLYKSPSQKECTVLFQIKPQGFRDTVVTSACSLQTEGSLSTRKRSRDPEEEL
UniProt Q15286: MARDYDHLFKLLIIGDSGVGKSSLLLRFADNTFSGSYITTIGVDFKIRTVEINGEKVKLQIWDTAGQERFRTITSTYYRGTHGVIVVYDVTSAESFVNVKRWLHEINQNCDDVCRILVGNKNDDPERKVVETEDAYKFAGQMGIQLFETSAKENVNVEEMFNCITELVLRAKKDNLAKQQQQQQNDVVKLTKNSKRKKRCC
UniProt P54725: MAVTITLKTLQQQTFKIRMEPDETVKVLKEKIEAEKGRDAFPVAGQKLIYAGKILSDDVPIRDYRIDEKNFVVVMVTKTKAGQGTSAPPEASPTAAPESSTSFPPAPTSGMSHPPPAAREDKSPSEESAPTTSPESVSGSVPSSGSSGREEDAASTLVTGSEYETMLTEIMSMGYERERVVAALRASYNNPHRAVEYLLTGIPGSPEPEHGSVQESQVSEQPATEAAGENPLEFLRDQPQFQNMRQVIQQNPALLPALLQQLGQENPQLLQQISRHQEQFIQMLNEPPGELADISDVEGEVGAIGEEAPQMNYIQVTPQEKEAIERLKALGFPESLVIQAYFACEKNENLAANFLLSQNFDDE

sotrastaurin = compound: CN1CCN(c2nc(C3=C(c4c[nH]c5ccccc45)C(=O)NC3=O)c3ccccc3n2)CC1 [sotrastaurin]
In short: as §1

alvocidib = compound: CN1CC[C@H](c2c(O)cc(O)c3c(=O)cc(-c4ccccc4Cl)oc23)[C@H](O)C1 [alvocidib]
In short: as §1

Tubastatin A = compound: CN1CCc2c(c3ccccc3n2Cc2ccc(C(=O)NO)cc2)C1 [Tubastatin A]
In short: as §1

[1] = compound: CNC(=O)C1=CC=CC=C1NC2=NC(=NC=C2Cl)NC3=C(C=C(C=C3)N4CCOCC4)OC
In short: as §1

defactinib = compound: CNC(=O)c1ccc(Nc2ncc(C(F)(F)F)c(NCc3nccnc3N(C)S(C)(=O)=O)n2)cc1 [defactinib]
In short: as §1

rucaparib = compound: CNCc1ccc(-c2[nH]c3cc(F)cc4c3c2CCNC4=O)cc1 [rucaparib]
In short: as §1

[2] = compound: CNc1nc(-c2ccc3c(N)n[nH]c3c2)cc(N2C[C@@H](C(=O)NC3CCCCC3)CC[C@H]2C)n1
In short: as §1

encorafenib = compound: COC(=O)N[C@@H](C)CNc1nccc(-c2cn(C(C)C)nc2-c2cc(Cl)cc(NS(C)(=O)=O)c2F)n1 [encorafenib]
In short: as §1

[3] = compound: COC(=O)[C@H](CCSC)NC(=O)C1=C(C=C(C=C1)NC[C@H](CS)N)C2=CC=CC=C2
In short: as §1

Measured: log2 fold change

RAB22A (UniProt Q9UL26)
inactive: saracatinib 0.032 | sotrastaurin 0.022 | alvocidib 0.012 | Tubastatin A -0.004 | [1] -0.052 | defactinib 0.028 | rucaparib 0 | [2] -0.047 | encorafenib -0.053 | [3] -0.002

RAB2B (UniProt Q8WUD1)
inactive: saracatinib 0.074 | sotrastaurin 0.015 | alvocidib -0.02 | Tubastatin A -0.023 | [1] 0.029 | defactinib 0.012 | rucaparib -0.055 | [2] 0.003 | encorafenib 0.004 | [3] 0.024

RAB6B (UniProt Q9NRW1)
inactive: saracatinib 0.033 | sotrastaurin -0.118 | alvocidib -0.055 | Tubastatin A -0.02 | [1] 0.027 | defactinib -0.034 | rucaparib 0.014 | [2] -0.014 | encorafenib -0.019 | [3] -0.032

RAB21 (UniProt Q9UL25)
inactive: saracatinib 0 | sotrastaurin 0.062 | alvocidib -0.032 | Tubastatin A -0.027 | [1] -0.011 | defactinib -0.01 | rucaparib -0.023 | [2] -0.024 | encorafenib -0.012 | [3] 0.003

RANBP17 (UniProt Q9H2T7)
inactive: saracatinib -0.064 | sotrastaurin -0.092 | alvocidib -0.211 | Tubastatin A 0.011 | [1] -0.032 | defactinib -0.042 | rucaparib 0.02 | [2] 0.026 | encorafenib 0.042 | [3] 0.086

RAP2A (UniProt P10114)
inactive: saracatinib -0.049 | sotrastaurin 0.053 | alvocidib 0.019 | Tubastatin A 0.032 | [1] -0.083 | defactinib -0.063 | rucaparib -0.021 | [2] 0.064 | encorafenib -0.02 | [3] 0.009

RAB13 (UniProt P51153)
inactive: saracatinib 0.115 | sotrastaurin 0 | alvocidib -0.051 | Tubastatin A -0.104 | [1] 0.028 | defactinib -0.003 | rucaparib -0.068 | [2] 0.006 | encorafenib 0.039 | [3] 0.02

RABGAP1 (UniProt Q9Y3P9)
inactive: saracatinib 0.044 | sotrastaurin -0.011 | alvocidib -0.015 | Tubastatin A -0.033 | [1] -0.055 | defactinib -0.025 | rucaparib 0.003 | [2] -0.012 | encorafenib 0.053 | [3] -0.009

RAB5A (UniProt P20339)
inactive: saracatinib 0.105 | sotrastaurin -0.067 | alvocidib -0.014 | Tubastatin A -0.007 | [1] 0.016 | defactinib -0.053 | rucaparib -0.061 | [2] -0.037 | encorafenib -0.012 | [3] -0.017

RAB27B (UniProt O00194)
inactive: saracatinib 0.088 | sotrastaurin 0.012 | alvocidib -0.058 | Tubastatin A 0.039 | [1] -0.057 | defactinib -0.003 | rucaparib -0.091 | [2] -0.029 | encorafenib -0.015 | [3] 0.023

RALB isoform 2 (UniProt P11234)
inactive: saracatinib 0.022 | sotrastaurin 0.057 | alvocidib -0.037 | Tubastatin A -0.037 | [1] -0.025 | defactinib -0.076 | rucaparib -0.013 | [2] 0.008 | encorafenib -0.015 | [3] -0.014

RAB3C (UniProt Q96E17)
inactive: saracatinib 0.101 | sotrastaurin 0.042 | alvocidib 0.006 | Tubastatin A -0.11 | [1] 0.014 | defactinib 0.01 | rucaparib 0.076 | [2] -0.033 | encorafenib -0.026 | [3] 0.052

RAB24 (UniProt Q969Q5)
inactive: saracatinib 0.063 | sotrastaurin 0.001 | alvocidib 0.054 | Tubastatin A -0.011 | [1] -0.039 | defactinib 0.015 | rucaparib -0.103 | [2] -0.032 | encorafenib 0.032 | [3] -0.002

RAC2 (UniProt P15153)
inactive: saracatinib -0.001 | sotrastaurin 0.031 | alvocidib 0.05 | Tubastatin A -0.007 | [1] 0.017 | defactinib 0.033 | rucaparib -0.036 | [2] -0.026 | encorafenib -0.009 | [3] 0.017

RAB11B (UniProt Q15907)
inactive: saracatinib 0.049 | sotrastaurin 0.07 | alvocidib 0.081 | Tubastatin A -0.052 | [1] -0.006 | defactinib 0.01 | rucaparib -0.017 | [2] -0.05 | encorafenib -0.01 | [3] 0.084

RAB27A (UniProt P51159)
inactive: saracatinib 0.034 | sotrastaurin 0.049 | alvocidib -0.004 | Tubastatin A -0.049 | [1] 0.027 | defactinib 0.011 | rucaparib -0.045 | [2] -0.043 | encorafenib 0.008 | [3] 0.027

RBBP7 isoform 2 (UniProt Q16576)
inactive: saracatinib 0 | sotrastaurin 0.001 | alvocidib -0.008 | Tubastatin A -0.028 | [1] 0.015 | defactinib -0.038 | rucaparib -0.082 | [2] -0.04 | encorafenib 0.014 | [3] -0.002

RAD1 (UniProt O60671)
inactive: saracatinib 0.073 | sotrastaurin -0.036 | alvocidib -0.001 | Tubastatin A -0.079 | [1] 0 | defactinib -0.025 | rucaparib 0.065 | [2] -0.055 | encorafenib -0.018 | [3] -0.025

RASSF5 (UniProt Q8WWW0)
inactive: saracatinib -0.075 | sotrastaurin -0.041 | alvocidib 0.035 | Tubastatin A 0.014 | [1] 0.042 | defactinib 0 | rucaparib 0.125 | [2] -0.022 | encorafenib -0.002 | [3] 0.064

RAB3A (UniProt P20336)
inactive: saracatinib -0.007 | sotrastaurin -0.045 | alvocidib 0.021 | Tubastatin A -0.039 | [1] 0.004 | defactinib 0.017 | rucaparib -0.014 | [2] -0.184 | encorafenib -0.047 | [3] -0.005

RAB3GAP1 (UniProt Q15042)
inactive: saracatinib 0.088 | sotrastaurin -0.186 | alvocidib 0.003 | Tubastatin A 0.039 | [1] -0.025 | defactinib -0.035 | rucaparib 0.207 | [2] -0.007 | encorafenib 0.179 | [3] -0.078

RAB4A (UniProt P20338)
inactive: saracatinib 0.068 | sotrastaurin 0.038 | alvocidib -0.014 | Tubastatin A -0.029 | [1] 0.004 | defactinib -0.034 | rucaparib 0.027 | [2] -0.016 | encorafenib -0.022 | [3] -0.003

2 successive entries already listed:
RAB3GAP1 (UniProt Q15042)
inactive: saracatinib 0.088 | sotrastaurin -0.186 | alvocidib 0.003 | Tubastatin A 0.039 | [1] -0.025 | defactinib -0.035 | rucaparib 0.207 | [2] -0.007 | encorafenib 0.179 | [3] -0.078

RAB4A (UniProt P20338)
inactive: saracatinib 0.068 | sotrastaurin 0.038 | alvocidib -0.014 | Tubastatin A -0.029 | [1] 0.004 | defactinib -0.034 | rucaparib 0.027 | [2] -0.016 | encorafenib -0.022 | [3] -0.003

Next part.

RAPGEF5, A0A590UJR0
inactive: saracatinib -0.747 | sotrastaurin 0.001 | alvocidib 0.19 | Tubastatin A 0.323 | [1] 0.009 | defactinib -0.323 | rucaparib -0.107 | [2] -0.043 | encorafenib -0.018 | [3] -0.238

RAN (UniProt P62826)
inactive: saracatinib 0.024 | sotrastaurin 0.05 | alvocidib 0.026 | Tubastatin A -0.053 | [1] -0.021 | defactinib 0.012 | rucaparib -0.042 | [2] -0.059 | encorafenib -0.038 | [3] 0.032

RACGAP1 (UniProt Q9H0H5)
inactive: saracatinib -0.096 | sotrastaurin -0.107 | alvocidib -0.13 | Tubastatin A -0.006 | [1] -0.152 | defactinib -0.109 | rucaparib 0.067 | [2] -0.048 | encorafenib 0.181 | [3] -0.109

RAB31 (UniProt Q13636)
inactive: saracatinib 0.063 | sotrastaurin 0.034 | alvocidib 0.029 | Tubastatin A -0.029 | [1] -0.018 | defactinib -0.003 | rucaparib -0.034 | [2] -0.042 | encorafenib 0.002 | [3] -0.017

RAD51C (UniProt O43502)
inactive: saracatinib -0.008 | sotrastaurin 0.009 | alvocidib -0.019 | Tubastatin A 0.021 | [1] -0.007 | defactinib -0.017 | rucaparib -0.013 | [2] -0.036 | encorafenib 0.002 | [3] 0.024

RAB35 (UniProt Q15286)
inactive: saracatinib 0.061 | sotrastaurin 0.058 | alvocidib 0.012 | Tubastatin A -0.017 | [1] 0.032 | defactinib 0.017 | rucaparib -0.015 | [2] -0.007 | encorafenib -0.019 | [3] 0.052

RAD23A (UniProt P54725)
inactive: saracatinib 0.004 | sotrastaurin 0.071 | alvocidib 0.017 | Tubastatin A -0.017 | [1] -0.027 | defactinib 0 | rucaparib -0.041 | [2] -0.027 | encorafenib -0.021 | [3] 0.056

RAB32 (UniProt Q13637)
inactive: saracatinib 0.147 | sotrastaurin 0.02 | alvocidib -0.051 | Tubastatin A -0.036 | [1] -0.025 | defactinib -0.013 | rucaparib 0 | [2] -0.011 | encorafenib 0.002 | [3] -0.028

Reference: the supplement of paper PMC10849652
